# Measured values from the supplement of paper PMC12819154, “High-throughput peptide-centric local stability assay extends protein–ligand identification to membrane proteins, tissues and bacteria” (Nature Structural & Molecular Biology, 2025).
# Sequences of proteins named here, by UniProt entry; tags and fusion partners are left off. A change or cut given only in a name is not applied to a line headed by its entry.
# UniProt Q3UIW5: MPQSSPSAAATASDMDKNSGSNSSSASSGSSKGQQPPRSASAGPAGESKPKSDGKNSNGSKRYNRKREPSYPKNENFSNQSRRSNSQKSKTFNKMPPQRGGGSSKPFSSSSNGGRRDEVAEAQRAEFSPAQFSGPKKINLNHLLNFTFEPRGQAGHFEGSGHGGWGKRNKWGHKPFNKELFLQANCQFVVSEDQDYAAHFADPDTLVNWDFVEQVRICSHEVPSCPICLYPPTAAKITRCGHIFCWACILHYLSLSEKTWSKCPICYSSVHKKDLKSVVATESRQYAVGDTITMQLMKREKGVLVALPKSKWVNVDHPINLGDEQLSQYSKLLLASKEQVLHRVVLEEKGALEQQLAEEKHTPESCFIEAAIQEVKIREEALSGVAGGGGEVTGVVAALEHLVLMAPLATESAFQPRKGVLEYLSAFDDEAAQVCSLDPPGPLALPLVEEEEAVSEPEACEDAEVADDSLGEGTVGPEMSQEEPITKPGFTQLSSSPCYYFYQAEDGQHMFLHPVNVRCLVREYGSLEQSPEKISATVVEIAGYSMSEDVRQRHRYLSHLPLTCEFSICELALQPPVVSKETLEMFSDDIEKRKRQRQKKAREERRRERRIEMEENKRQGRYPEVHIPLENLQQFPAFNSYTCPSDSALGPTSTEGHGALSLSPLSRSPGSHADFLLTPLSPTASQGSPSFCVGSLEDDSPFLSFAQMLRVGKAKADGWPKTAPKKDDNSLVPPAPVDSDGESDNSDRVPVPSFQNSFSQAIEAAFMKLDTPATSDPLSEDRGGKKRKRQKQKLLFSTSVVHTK
# UniProt Q3UFS4: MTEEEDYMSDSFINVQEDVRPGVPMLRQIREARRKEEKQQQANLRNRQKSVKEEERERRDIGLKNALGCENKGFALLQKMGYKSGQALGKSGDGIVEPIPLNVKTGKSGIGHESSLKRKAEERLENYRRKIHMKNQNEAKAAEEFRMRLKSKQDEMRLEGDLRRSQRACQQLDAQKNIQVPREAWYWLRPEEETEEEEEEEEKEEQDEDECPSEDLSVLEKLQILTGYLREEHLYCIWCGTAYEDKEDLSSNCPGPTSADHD
# UniProt Q505B7: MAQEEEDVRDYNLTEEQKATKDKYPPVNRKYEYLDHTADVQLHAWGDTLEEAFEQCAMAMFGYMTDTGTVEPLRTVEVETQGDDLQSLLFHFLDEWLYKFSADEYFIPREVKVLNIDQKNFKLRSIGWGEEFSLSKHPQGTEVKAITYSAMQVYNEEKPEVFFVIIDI
# UniProt Q3UFF7: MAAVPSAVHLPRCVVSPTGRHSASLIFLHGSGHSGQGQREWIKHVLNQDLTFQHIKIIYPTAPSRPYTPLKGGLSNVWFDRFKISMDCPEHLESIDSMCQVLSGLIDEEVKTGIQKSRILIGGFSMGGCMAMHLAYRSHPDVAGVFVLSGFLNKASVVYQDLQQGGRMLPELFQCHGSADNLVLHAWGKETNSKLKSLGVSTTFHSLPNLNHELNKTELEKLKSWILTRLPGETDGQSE
# UniProt Q3UMU9: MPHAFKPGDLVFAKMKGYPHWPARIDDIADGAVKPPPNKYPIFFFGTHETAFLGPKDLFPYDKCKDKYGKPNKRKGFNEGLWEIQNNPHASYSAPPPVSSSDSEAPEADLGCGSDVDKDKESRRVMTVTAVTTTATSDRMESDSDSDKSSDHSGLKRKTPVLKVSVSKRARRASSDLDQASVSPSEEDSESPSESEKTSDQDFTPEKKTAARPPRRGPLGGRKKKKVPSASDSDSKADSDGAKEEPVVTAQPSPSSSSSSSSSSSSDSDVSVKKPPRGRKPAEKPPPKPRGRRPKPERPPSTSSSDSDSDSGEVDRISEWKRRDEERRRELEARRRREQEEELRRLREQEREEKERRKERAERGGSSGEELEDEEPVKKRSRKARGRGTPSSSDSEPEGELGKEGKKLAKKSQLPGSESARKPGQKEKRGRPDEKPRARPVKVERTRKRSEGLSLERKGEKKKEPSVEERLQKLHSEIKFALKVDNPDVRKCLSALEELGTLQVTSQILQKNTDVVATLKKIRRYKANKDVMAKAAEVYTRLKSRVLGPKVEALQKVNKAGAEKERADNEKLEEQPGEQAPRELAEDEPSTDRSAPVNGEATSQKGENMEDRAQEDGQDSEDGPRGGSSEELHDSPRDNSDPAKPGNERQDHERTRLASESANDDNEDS
# UniProt Q3UG98: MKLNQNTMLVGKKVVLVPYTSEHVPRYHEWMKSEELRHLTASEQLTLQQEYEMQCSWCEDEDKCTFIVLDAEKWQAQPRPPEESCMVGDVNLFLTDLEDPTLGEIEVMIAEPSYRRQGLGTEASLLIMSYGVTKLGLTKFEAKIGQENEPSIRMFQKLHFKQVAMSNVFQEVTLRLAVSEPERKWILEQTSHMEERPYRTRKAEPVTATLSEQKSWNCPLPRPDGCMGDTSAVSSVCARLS
# UniProt Q569L8: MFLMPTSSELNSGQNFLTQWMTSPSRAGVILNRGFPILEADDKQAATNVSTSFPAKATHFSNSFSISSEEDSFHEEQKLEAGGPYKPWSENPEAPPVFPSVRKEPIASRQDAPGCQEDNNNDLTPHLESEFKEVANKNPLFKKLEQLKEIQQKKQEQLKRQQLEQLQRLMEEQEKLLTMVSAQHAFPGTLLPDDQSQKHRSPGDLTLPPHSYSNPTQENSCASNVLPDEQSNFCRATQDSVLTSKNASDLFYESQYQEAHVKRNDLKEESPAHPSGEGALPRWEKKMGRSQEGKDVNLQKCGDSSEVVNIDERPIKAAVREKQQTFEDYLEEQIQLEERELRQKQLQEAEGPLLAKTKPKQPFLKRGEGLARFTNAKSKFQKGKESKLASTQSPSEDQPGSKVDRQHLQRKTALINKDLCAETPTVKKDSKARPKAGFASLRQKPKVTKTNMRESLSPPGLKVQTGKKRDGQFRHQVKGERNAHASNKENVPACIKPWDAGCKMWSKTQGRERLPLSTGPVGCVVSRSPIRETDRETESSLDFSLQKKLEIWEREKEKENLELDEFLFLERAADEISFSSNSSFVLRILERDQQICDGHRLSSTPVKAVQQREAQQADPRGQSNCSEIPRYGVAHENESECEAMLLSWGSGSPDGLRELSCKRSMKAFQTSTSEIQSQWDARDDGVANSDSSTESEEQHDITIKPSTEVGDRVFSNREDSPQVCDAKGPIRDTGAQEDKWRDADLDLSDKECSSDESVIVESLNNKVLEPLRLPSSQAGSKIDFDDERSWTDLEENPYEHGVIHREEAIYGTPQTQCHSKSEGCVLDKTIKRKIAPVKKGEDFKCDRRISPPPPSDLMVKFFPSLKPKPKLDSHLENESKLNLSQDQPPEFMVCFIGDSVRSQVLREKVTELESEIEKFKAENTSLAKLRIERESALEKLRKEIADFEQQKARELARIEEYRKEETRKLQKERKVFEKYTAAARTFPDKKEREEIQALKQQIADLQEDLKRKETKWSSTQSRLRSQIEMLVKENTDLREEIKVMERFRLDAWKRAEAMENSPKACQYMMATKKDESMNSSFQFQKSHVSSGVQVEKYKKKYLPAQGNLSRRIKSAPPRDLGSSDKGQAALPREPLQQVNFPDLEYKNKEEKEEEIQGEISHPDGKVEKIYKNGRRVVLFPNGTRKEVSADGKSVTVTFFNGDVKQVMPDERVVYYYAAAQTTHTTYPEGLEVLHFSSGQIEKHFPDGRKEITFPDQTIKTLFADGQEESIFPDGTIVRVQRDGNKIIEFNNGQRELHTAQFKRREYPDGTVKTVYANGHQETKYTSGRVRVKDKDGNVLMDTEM
# UniProt Q3UR70: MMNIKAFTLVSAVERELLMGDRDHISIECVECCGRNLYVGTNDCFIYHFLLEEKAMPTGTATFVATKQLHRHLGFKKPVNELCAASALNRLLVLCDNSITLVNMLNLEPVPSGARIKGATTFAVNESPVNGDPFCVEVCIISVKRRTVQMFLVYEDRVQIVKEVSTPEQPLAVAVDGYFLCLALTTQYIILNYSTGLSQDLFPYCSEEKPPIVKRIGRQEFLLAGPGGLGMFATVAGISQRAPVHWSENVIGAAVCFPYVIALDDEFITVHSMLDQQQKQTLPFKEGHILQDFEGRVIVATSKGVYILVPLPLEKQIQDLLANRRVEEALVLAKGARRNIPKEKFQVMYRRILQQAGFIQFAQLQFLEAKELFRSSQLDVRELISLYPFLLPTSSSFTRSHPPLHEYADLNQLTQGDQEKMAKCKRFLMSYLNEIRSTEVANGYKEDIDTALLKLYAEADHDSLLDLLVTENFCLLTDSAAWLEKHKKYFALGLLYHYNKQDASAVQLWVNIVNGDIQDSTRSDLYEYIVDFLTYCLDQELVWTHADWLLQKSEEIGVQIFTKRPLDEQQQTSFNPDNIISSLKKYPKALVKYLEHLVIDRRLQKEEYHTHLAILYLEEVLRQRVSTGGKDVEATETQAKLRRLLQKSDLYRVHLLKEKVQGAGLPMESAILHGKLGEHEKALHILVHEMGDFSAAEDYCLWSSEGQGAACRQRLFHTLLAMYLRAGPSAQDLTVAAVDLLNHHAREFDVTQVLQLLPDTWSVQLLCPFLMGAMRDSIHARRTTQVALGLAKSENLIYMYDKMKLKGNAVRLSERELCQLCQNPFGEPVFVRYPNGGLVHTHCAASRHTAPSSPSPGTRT
# UniProt Q3USJ8: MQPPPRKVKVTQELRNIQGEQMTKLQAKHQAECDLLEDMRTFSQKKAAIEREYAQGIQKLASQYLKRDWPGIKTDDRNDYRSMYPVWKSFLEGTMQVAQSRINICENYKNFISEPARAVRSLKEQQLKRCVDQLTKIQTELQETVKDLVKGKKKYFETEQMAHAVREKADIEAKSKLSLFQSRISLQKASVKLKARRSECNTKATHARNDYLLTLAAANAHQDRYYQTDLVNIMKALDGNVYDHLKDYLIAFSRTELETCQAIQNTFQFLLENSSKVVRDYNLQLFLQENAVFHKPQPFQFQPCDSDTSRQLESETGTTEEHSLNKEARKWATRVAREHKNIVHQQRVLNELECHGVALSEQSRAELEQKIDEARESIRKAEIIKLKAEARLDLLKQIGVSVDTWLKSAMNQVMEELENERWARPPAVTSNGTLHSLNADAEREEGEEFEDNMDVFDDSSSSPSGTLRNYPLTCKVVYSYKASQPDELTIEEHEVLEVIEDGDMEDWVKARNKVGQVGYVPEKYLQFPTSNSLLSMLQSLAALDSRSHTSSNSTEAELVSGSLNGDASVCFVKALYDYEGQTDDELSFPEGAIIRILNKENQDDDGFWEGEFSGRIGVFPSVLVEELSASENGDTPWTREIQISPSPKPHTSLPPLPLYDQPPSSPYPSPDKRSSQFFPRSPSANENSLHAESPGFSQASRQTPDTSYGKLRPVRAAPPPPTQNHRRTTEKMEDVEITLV
# UniProt Q3V2Q8: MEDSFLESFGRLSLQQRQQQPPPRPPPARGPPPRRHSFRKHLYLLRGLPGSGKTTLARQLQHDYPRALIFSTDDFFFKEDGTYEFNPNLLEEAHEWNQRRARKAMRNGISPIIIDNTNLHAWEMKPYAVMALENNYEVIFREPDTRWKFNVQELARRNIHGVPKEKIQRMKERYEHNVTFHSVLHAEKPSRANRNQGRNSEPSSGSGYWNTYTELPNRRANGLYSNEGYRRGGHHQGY
# UniProt Q3UHI4: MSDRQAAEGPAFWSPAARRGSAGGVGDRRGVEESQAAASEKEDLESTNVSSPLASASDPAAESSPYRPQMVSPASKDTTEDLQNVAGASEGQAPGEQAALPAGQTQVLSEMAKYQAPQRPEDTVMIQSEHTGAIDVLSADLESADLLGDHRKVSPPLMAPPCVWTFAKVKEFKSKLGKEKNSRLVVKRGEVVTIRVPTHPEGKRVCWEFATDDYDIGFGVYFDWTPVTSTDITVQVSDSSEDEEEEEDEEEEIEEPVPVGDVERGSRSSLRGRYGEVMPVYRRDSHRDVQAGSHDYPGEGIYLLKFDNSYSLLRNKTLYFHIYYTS
# UniProt Q3V4B5: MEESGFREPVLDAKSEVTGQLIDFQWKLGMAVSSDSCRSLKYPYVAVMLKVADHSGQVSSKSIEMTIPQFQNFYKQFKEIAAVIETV
# UniProt Q3UTZ3: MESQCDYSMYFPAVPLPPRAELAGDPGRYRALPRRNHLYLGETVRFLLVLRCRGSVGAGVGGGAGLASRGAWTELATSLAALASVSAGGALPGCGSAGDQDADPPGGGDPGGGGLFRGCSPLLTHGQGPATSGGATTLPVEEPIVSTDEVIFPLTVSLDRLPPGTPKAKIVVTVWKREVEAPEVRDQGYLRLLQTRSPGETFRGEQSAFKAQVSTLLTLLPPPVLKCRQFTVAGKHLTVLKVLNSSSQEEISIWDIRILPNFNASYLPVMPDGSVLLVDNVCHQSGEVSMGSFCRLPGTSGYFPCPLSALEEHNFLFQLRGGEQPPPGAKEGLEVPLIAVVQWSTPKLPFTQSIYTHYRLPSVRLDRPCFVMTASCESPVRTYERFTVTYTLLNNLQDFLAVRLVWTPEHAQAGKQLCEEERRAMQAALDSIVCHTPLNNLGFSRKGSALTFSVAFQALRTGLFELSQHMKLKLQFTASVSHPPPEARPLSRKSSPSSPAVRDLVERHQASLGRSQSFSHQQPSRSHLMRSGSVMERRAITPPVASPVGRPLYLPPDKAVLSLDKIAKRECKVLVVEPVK
# The other results are listed elsewhere or left out. Most entries show no effect beyond the scatter of the controls.
# Compound: CN[C@@H]1C[C@H]2O[C@@](C)([C@@H]1OC)n1c3ccccc3c3c4c(c5c6ccccc6n2c5c31)C(=O)NC4 [staurosporine]
# Test: log2 fold change of tryptic peptide abundance, ligand vs vehicle (limited proteolysis) (log2 ratio); higher = more trypsin-susceptible (destabilized)
# Settings: ligand concentration: 20 uM; sample: mouse liver crude lysate; replicate design: treated separately
row,Target,log2 fold change
1,"UniProt Q3UQN2 (peptide sequence: SKPSSLPTEK, peptide start residue: 410)",-0.295
2,"UniProt Q3USZ8 (peptide sequence: LLDFLNVK, peptide start residue: 82)",0.0711
3,"UniProt Q3UIW5 (peptide sequence: RDEVAEAQR, peptide start residue: 116)",-0.755
4,"UniProt Q3UFS4 (peptide sequence: NALGCENKGFALLQK, peptide start residue: 65)",0.165
5,"UniProt Q571C7 (peptide sequence: TGDKNNAAESSTLSSASSQR, peptide start residue: 75)",0.547
6,"UniProt Q505B7 (peptide sequence: DKYPPVNR, peptide start residue: 22)",0.112
7,"UniProt Q3UG20 (peptide sequence: ETTENISGSCK, peptide start residue: 806)",0.814
8,"UniProt Q3U3R4 (peptide sequence: RKVGGAEHSPASQPSLAR, peptide start residue: 18)",0.603
9,"UniProt Q3UFF7 (peptide sequence: IIYPTAPSRPYTPLK, peptide start residue: 57)",-0.474
10,"UniProt Q3UMU9 (peptide sequence: NTDVVATLKK, peptide start residue: 512)",0.329
11,"UniProt Q56A08 (peptide sequence: DFLATVEGR, peptide start residue: 45)",0.438
12,"UniProt Q50H33 (peptide sequence: FFIDRDGFLFR, peptide start residue: 97)",0.281
13,"UniProt Q5BL07 (peptide sequence: AIHSSLSR, peptide start residue: 792)",-0.246
14,"UniProt Q3UKC1 (peptide sequence: QLADTLAELQLHAVKK, peptide start residue: 404)",0.212
15,"UniProt Q3UMQ8 (peptide sequence: FGGSGQGSAAPQPPEDRR, peptide start residue: 15)",0.277
16,"UniProt Q3V1V3 (peptide sequence: LNYAVDKR, peptide start residue: 49)",-0.227

row,Target,log2 fold change
1,"UniProt Q3UG98 (peptide sequence: KAEPVTATLSEQK, peptide start residue: 202)",-0.105
2,"UniProt Q3UMB9 (peptide sequence: EIKDQNDHKYPFDR, peptide start residue: 875)",0.169
3,"UniProt Q569L8 (peptide sequence: EREEIQALK, peptide start residue: 991)",-0.147
4,"UniProt Q3UR70 (peptide sequence: EKFQVMYR, peptide start residue: 343)",-0.287
5,"UniProt Q3U829 (peptide sequence: LGEDPGSER, peptide start residue: 356)",0.362
6,"UniProt Q3USJ8 (peptide sequence: AAPPPPTQNHR, peptide start residue: 716)",-0.4
7,"UniProt Q3V2Q8 (peptide sequence: FNVQELAR, peptide start residue: 149)",0.124
8,"UniProt Q3UUQ7 (peptide sequence: DSAVQSLR, peptide start residue: 796)",0.305
9,"UniProt Q3UPL5 (peptide sequence: KSFLQSLECLRR, peptide start residue: 205)",0.19
10,"UniProt Q3UHI4 (peptide sequence: KVSPPLMAPPCVWTFAK, peptide start residue: 152)",1.11
11,"UniProt Q3US17 (peptide sequence: RQPSPAAPAAPHRPK, peptide start residue: 226)",0.41
12,"UniProt Q3V4B5 (peptide sequence: SLKYPYVAVMLK, peptide start residue: 39)",0.084
13,"UniProt Q3UTZ3 (peptide sequence: AITPPVASPVGR, peptide start residue: 539)",0.187
14,"UniProt Q3UTJ2 (peptide sequence: GAEDYPDPPLPHSYSSDR, peptide start residue: 1083)",-0.211
15,"UniProt Q3UE31 (peptide sequence: VTSFSTPPTPER, peptide start residue: 285)",-0.295

# 3 entries from above, as tab-separated lines:
row	Target	log2 fold change
10	UniProt Q3UMU9 (peptide sequence: NTDVVATLKK, peptide start residue: 512)	0.329
11	UniProt Q56A08 (peptide sequence: DFLATVEGR, peptide start residue: 45)	0.438
12	UniProt Q50H33 (peptide sequence: FFIDRDGFLFR, peptide start residue: 97)	0.281
